No constants are given. Whether binding was seen depends on the method and setting. For some of these results: In cells and extracts the contact can be indirect. Some results given as binding are weak or reduced against the parent protein; the word gives no strength.
How the values were obtained:
[1] = target: IL-15Rα-his (Homo sapiens (Human)) (UniProt Q13261); test: BLI (Octet RED96), receptor immobilised on sensor
Sushi-hIgG4Fc = test: co-expression in HEK293, Protein A purification, SEC-HPLC single peak, LC-MS shows both components
Sushi-hIgG1Fc = test: as above
Sushi-mIgG2aa.1Fc = test: as above

The chains behind the UniProt entries cited, without tags or fusion partners. Where a name states a change or a piece, a line headed by the entry shows the natural chain unless it says otherwise.
UniProt Q13261: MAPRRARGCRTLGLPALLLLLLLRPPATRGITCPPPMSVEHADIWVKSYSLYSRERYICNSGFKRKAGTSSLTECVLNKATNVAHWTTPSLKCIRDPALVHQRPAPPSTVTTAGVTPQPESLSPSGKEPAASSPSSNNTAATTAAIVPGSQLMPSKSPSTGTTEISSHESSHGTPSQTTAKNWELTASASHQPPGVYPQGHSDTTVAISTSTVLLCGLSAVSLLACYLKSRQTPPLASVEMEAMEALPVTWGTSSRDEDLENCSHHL

binding [1]: binds
binding (Sushi-hIgG4Fc): binds
binding (Sushi-hIgG1Fc): binds
binding (Sushi-mIgG2aa.1Fc): binds
B1: IL-2/15 chimera 1 (ligand)
chain: APTSSSTKKTQLQLEHLLLDLQMILNGIQSMHIDATLYTESDVHPSCKVTAMKCFLLELQVISLESGDASIHDTVENLIILANNSLSSNGNVTESGCKECEELEEKNIVEFLNRFITFAQSIISTLT
